{"source": "paper PMC9828637", "about": "“Pol32, an accessory subunit of DNA polymerase delta, plays an essential role in genome stability and pathogenesis of Candida albicans” (Gut Microbes, 2023)", "key": {"[1]": {"biological_target": "CaPol32 (F398A, F399A) (GST tag cleaved) (C. albicans)", "experiment": "condition: 250 μM CaPCNA injected into 20 μM CaPol32 (F398A, F399A); ITC; MicroCal PEAQ-ITC, 25°C, 20 mM HEPES pH 7.4, 150 mM NaCl; 20 μM CaPol32 or CaPol32 (F398A, F399A) in the cell, 250 μM CaPCNA in the syringe, 25 injections of 1.5 μl; one-site binding model; both purified"}, "[2]": {"biological_target": "GST-CaPol32 (F398A, F399A) (C. albicans)", "experiment": "pull-down; GST-CaPol32 or GST-CaPol32 (F398A, F399A) bound to glutathione-Sepharose beads, mixed with 0.5 µg CaPCNA (equimolar), overnight; washed with 50 mM Tris-HCl pH 7.5, 150 mM NaCl, 5 mM DTT, 0.01% NP-40, 10% glycerol; eluted in SDS loading buffer; western blot with anti-CaPCNA antibody; both purified"}, "[3]": {"biological_target": "GST-CaPol32 (wild type) (C. albicans)", "experiment": "pull-down; GST-CaPol32 or GST-CaPol32 (F398A, F399A) bound to glutathione-Sepharose beads, mixed with 0.5 µg CaPCNA (equimolar), overnight; washed with 50 mM Tris-HCl pH 7.5, 150 mM NaCl, 5 mM DTT, 0.01% NP-40, 10% glycerol; eluted in SDS loading buffer; western blot with anti-CaPCNA antibody; both purified"}}, "note": "No constants are given. Whether binding was seen depends on the method and setting. Some results given as binding are weak or reduced against the parent protein; the word gives no strength."}
{"binder": "CaPCNA (natural protein, C. albicans, UniProt Q5AMN0 1-259, looked up, PCNA (proliferating cell nuclear antigen, DNA sliding clamp), C. albicans; it calls PCNA trimeric without measuring this here; also called proliferating cell nuclear antigen of C. albicans; source: E. coli BL21 DE3, purified (glutathione-Sepharose 4B, GST cleaved with PreScission protease)) MLEGKFEEAALLKKVVEAIKDCVKKCNFNCSEHGITVQAVDDSRVLLVSLLIGQTSFSEYRCDRDVTLGIDLESFSKIIKSANNEDFLTLLAEDSPDQIMAILEEKQKEKISEYSLKLMDIDSEFLQIDDMEYDAVVNMPSSDFAKLVRDLKNLSESLRVVVTKDSVKFTSEGDSGSGSVILKPYTNLKNERESVTISLDDPVDLTFGLKYLNDIVKAATLSDVITIKLADKTPALFEFKMQSGGYLRFYLAPKFDDDE", "values": [{"measurement": "binding", "setting": "[1]", "result": "no binding"}, {"measurement": "binding", "setting": "[2]", "result": "no binding (tested: 0.5 µg CaPCNA)"}, {"measurement": "binding", "setting": "[3]", "result": "binds"}]}
